Data on one substance can be found in article PMC9534967.

Protein sequences, listed by entry. Tags and fused reporters are not part of them. Lines headed by an entry give the natural chain unless they say otherwise; changes in a name come on top.
UniProt O14727: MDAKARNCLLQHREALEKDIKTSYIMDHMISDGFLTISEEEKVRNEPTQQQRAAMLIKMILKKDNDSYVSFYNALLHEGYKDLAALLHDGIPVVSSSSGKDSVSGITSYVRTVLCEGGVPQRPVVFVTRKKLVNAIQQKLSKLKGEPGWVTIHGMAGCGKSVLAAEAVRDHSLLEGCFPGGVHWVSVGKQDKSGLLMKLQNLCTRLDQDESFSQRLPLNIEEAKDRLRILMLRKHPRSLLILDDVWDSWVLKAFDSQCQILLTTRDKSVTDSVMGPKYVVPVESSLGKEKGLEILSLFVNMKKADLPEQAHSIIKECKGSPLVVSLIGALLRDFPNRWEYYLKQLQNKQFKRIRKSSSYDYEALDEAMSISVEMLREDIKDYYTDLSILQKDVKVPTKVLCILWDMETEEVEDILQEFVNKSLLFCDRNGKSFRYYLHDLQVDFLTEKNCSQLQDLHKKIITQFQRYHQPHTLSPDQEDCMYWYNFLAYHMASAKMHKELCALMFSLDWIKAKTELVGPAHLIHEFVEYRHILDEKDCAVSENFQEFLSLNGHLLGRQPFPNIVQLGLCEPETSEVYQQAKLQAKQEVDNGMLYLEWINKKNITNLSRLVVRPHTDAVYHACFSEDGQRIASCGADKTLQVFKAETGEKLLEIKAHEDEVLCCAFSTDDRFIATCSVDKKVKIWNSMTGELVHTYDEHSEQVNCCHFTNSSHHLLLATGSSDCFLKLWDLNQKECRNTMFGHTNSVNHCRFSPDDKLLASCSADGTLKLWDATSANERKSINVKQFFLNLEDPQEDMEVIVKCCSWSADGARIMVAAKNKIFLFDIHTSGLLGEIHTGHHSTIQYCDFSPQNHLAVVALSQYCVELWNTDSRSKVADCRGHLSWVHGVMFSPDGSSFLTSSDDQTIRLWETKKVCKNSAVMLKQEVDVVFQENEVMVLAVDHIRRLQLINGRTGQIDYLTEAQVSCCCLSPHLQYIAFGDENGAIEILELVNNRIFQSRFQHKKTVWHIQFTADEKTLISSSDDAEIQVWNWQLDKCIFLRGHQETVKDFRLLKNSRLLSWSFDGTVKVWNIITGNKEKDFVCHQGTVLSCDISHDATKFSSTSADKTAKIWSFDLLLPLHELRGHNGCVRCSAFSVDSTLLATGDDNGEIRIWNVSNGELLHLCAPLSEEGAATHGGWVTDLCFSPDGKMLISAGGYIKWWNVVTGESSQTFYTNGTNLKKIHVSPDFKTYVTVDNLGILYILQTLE
UniProt P99999: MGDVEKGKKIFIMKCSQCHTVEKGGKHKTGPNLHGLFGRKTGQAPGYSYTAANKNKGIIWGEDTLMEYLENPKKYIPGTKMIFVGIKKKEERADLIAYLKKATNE

Results are given in words; binding and its absence hold for the method and conditions named. A result given as binding can be weak or reduced; the word gives no strength.

The assay deals with His-tagged recombinant WD1/WD2 domain of APAF1 (UniProt O14727). Put plainly: pull-down; 2 µg His-tagged WD1/WD2 domain of APAF1 on Ni-NTA beads, with or without 1 or 2 µg ABL sense, anti-sense or mutant (∆APAF1) RNA at 4 °C for 1 h, then 2 µg GST-Cyt c at room temperature for 1 h; PBS washes; Western blot and coomassie staining; both purified. On the technique in general: In western blotting, separated proteins are transferred to a membrane and probed.

Consider “GST-tagged recombinant Cyt c (from UniProt P99999 1-105)”, for which the binding result is “binds”.
